Results are given in words; binding and its absence hold for the method and conditions named. In cells and extracts the contact can be indirect. These calls come from enrichment with a bait or labelling near it, and not all partners need be listed.
B1: CHM (protein, UniProt P24386 1-653)
chain: MADTLPSEFDVIVIGTGLPESIIAAACSRSGRRVLHVDSRSYYGGNWASFSFSGLLSWLKEYQENSDIVSDSPVWQDQILENEEAIALSRKDKTIQHVEVFCYASQDLHEDVEEAGALQKNHALVTSANSTEAADSAFLPTEDESLSTMSCEMLTEQTPSSDPENALEVNGAEVTGEKENHCDDKTCVPSTSAEDMSENVPIAEDTTEQPKKNRITYSQIIKEGRRFNIDLVSKLLYSRGLLIDLLIKSNVSRYAEFKNITRILAFREGRVEQVPCSRADVFNSKQLTMVEKRMLMKFLTFCMEYEKYPDEYKGYEEITFYEYLKTQKLTPNLQYIVMHSIAMTSETASSTIDGLKATKNFLHCLGRYGNTPFLFPLYGQGELPQCFCRMCAVFGGIYCLRHSVQCLVVDKESRKCKAIIDQFGQRIISEHFLVEDSYFPENMCSRVQYRQISRAVLITDRSVLKTDSDQQISILTVPAEEPGTFAVRVIELCSSTMTCMKGTYLVHLTCTSSKTAREDLESVVQKLFVPYTEMEIENEQVEKPRILWALYFNMRDSSDISRSCYNDLPSNVYVCSGPDCGLGNDNAVKQAETLFQEICPNEDFCPPPPNPEDIILDGDSLQPEASESSAIPEANSETFKESTNLGNLEESSE
B2: CHML (protein, UniProt P26374 1-656)
chain: MADNLPTEFDVVIIGTGLPESILAAACSRSGQRVLHIDSRSYYGGNWASFSFSGLLSWLKEYQQNNDIGEESTVVWQDLIHETEEAITLRKKDETIQHTEAFCYASQDMEDNVEEIGALQKNPSLGVSNTFTEVLDSALPEESQLSYFNSDEMPAKHTQKSDTEISLEVTDVEESVEKEKYCGDKTCMHTVSDKDGDKDESKSTVEDKADEPIRNRITYSQIVKEGRRFNIDLVSKLLYSQGLLIDLLIKSDVSRYVEFKNVTRILAFREGKVEQVPCSRADVFNSKELTMVEKRMLMKFLTFCLEYEQHPDEYQAFRQCSFSEYLKTKKLTPNLQHFVLHSIAMTSESSCTTIDGLNATKNFLQCLGRFGNTPFLFPLYGQGEIPQGFCRMCAVFGGIYCLRHKVQCFVVDKESGRCKAIIDHFGQRINAKYFIVEDSYLSEETCSNVQYKQISRAVLITDQSILKTDLDQQTSILIVPPAEPGACAVRVTELCSSTMTCMKDTYLVHLTCSSSKTAREDLESVVKKLFTPYTETEINEEELTKPRLLWALYFNMRDSSGISRSSYNGLPSNVYVCSGPDCGLGNEHAVKQAETLFQEIFPTEEFCPPPPNPEDIIFDGDDKQPEAPGTNNVVMAKLESSEESKNLESPEKHLQN

Sequences of proteins named here, by UniProt entry; tags and fusion partners are left off. A change or cut given only in a name is not applied to a line headed by its entry.
UniProt P51149: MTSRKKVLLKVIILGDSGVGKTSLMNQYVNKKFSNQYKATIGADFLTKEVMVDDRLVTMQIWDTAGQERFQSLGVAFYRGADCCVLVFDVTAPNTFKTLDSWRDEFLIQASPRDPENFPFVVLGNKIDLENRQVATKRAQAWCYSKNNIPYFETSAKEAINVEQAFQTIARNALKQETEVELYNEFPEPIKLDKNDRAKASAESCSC
UniProt Q709C8: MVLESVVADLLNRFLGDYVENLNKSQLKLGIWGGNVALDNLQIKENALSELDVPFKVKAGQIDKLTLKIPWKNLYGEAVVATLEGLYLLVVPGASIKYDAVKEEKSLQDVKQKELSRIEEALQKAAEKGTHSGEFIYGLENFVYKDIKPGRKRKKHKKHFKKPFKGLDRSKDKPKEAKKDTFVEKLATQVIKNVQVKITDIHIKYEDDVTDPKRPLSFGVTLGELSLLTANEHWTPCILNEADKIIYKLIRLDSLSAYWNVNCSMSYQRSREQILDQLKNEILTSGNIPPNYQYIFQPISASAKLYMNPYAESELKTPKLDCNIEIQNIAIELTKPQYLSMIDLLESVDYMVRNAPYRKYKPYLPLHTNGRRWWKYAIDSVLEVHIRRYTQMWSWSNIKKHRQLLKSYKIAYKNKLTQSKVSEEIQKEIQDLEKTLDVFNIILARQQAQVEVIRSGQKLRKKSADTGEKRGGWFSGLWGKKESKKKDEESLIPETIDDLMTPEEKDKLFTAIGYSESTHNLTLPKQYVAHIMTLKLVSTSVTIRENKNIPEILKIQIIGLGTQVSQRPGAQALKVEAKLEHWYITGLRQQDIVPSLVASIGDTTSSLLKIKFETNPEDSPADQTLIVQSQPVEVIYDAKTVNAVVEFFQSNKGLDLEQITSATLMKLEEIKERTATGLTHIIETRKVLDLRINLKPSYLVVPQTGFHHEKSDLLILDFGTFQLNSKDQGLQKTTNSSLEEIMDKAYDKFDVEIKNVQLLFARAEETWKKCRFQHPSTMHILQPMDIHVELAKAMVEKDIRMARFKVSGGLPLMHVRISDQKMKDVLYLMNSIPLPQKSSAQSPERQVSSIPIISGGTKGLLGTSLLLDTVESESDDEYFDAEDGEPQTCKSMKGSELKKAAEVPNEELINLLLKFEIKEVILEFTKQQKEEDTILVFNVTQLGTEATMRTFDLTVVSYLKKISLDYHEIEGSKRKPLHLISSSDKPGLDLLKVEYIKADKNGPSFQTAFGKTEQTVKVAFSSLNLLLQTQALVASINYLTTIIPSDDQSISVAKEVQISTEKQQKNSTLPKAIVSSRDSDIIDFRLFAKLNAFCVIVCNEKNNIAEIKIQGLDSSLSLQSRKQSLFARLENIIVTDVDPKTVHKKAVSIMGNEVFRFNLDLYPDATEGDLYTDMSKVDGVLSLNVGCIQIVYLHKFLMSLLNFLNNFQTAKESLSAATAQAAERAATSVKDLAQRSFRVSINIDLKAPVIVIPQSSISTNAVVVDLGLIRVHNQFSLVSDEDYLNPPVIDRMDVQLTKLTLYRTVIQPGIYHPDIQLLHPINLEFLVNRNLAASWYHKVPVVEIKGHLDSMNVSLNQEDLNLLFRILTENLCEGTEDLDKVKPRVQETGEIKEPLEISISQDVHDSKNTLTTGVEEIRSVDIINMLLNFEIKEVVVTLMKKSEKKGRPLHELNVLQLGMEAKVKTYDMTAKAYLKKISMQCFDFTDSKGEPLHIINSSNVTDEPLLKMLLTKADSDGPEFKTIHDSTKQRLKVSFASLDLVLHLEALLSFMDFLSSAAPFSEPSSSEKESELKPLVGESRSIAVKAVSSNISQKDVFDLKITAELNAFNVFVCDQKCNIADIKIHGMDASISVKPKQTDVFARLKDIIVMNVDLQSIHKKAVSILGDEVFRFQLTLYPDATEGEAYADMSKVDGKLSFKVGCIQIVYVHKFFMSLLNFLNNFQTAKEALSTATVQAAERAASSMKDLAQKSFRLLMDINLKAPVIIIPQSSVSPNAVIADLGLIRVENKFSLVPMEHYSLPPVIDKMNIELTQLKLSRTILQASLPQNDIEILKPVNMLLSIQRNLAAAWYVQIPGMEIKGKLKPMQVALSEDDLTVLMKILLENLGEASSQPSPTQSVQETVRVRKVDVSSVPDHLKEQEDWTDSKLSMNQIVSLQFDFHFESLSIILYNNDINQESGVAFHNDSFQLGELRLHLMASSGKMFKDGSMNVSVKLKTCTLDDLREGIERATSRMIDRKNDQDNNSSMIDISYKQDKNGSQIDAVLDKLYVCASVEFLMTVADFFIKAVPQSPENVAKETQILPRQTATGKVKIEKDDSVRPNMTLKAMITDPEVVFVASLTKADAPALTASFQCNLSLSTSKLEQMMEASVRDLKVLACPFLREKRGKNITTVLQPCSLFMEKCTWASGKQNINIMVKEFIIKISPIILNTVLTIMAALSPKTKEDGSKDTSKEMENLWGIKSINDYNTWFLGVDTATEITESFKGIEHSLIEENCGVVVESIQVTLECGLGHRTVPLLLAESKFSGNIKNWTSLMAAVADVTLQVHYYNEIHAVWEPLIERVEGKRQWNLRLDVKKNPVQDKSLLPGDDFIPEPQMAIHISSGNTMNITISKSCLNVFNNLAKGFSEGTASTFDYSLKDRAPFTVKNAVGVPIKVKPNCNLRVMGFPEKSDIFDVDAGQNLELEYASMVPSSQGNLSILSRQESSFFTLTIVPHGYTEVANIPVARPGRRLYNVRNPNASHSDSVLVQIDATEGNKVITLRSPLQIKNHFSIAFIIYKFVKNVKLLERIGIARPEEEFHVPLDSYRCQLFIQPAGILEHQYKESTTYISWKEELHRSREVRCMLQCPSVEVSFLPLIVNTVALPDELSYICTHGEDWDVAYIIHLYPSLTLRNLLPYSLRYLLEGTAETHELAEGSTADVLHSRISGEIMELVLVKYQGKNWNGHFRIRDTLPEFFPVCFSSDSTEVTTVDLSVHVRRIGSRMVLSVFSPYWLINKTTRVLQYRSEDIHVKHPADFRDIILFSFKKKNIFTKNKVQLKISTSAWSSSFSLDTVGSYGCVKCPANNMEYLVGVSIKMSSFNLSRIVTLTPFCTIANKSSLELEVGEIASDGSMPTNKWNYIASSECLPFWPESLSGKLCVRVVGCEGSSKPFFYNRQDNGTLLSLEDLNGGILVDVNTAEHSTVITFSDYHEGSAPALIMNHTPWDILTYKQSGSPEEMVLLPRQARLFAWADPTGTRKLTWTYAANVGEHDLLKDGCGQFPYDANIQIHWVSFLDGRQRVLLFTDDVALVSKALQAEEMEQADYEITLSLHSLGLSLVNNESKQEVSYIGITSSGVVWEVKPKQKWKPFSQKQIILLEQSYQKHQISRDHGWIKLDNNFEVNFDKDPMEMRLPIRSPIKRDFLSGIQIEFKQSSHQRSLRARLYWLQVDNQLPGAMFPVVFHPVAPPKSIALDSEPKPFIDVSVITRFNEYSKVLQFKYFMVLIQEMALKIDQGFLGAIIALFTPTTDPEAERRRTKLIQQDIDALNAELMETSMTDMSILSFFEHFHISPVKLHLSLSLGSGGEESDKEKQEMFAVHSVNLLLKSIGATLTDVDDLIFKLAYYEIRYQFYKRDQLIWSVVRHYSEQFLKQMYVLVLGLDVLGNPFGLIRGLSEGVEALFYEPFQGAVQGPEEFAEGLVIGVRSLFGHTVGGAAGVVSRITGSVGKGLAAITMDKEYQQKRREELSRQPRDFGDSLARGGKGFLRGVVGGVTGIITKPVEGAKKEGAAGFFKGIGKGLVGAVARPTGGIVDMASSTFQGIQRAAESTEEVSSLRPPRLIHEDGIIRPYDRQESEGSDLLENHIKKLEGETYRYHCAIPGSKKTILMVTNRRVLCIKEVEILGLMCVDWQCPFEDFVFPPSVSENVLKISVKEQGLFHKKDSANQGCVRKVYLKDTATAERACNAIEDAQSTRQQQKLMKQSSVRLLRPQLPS

target: GFP-RAB7A S72A (UniProt P51149); assay: affinity purification with mass spectrometry; SILAC-labelled HeLa cells transfected with GFP-RAB7A or GFP (Exp 1), GFP-RAB7A S72E or S72A (Exp 2); lysed in RAB7A IP buffer (20 mM HEPES, 10% glycerol, 0.5% Triton X-100, 150 mM NaCl, 2 mM MgCl2); GFP-trap; LC-MS/MS

binding, binds:
VSP13C (from UniProt Q709C8 1-3753)
B1
B2

— paper PMC4501846
